These results are taken from paper PMC3110202.

Sequences of proteins named here, by UniProt entry; tags and fusion partners are left off.
UniProt Q15788: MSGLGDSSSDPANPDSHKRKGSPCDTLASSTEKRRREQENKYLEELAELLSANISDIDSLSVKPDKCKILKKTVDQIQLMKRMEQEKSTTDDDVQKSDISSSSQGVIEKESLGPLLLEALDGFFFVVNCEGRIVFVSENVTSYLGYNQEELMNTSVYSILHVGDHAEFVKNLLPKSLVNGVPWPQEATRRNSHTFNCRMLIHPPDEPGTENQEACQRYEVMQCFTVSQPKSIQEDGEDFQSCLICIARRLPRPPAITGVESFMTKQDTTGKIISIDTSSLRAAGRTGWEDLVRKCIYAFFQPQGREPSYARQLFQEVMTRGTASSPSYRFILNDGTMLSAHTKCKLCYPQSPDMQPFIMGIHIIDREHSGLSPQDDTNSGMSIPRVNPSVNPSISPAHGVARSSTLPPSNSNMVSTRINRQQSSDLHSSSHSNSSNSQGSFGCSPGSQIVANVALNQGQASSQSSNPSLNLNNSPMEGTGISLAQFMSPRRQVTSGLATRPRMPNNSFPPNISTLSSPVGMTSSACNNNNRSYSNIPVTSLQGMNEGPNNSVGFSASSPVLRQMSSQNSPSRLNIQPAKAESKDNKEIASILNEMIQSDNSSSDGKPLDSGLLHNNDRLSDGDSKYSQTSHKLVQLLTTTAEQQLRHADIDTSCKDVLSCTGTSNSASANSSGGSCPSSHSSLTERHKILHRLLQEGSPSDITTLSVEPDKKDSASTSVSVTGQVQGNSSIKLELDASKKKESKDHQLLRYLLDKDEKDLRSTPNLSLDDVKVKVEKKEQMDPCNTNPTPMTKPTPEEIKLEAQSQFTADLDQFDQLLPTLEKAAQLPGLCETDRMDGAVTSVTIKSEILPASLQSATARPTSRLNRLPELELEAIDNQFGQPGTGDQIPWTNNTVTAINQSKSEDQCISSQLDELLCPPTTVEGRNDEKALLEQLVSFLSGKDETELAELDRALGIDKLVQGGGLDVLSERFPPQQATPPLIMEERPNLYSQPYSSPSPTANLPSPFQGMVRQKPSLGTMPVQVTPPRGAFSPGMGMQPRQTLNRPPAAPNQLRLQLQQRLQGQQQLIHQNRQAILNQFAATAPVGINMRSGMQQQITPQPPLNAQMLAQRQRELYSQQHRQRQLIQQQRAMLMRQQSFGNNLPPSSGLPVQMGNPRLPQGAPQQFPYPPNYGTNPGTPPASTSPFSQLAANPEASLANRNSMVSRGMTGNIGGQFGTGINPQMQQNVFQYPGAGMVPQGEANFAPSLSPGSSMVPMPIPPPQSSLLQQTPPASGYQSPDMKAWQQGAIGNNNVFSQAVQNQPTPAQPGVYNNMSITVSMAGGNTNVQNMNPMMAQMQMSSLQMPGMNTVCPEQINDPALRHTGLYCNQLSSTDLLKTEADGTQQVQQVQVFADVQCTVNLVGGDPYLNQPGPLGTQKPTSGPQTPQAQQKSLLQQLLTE

Results are given in words; binding and its absence hold for the method and conditions named. Binding seen in cells or lysates may run through a third protein. Some binding calls cover weakened binding; strength is not graded here.

In this test the target is T1, thyroid hormone receptor beta (TRβ) (human (endogenous in MCF-7)) (UniProt P10828).
T1 sequence: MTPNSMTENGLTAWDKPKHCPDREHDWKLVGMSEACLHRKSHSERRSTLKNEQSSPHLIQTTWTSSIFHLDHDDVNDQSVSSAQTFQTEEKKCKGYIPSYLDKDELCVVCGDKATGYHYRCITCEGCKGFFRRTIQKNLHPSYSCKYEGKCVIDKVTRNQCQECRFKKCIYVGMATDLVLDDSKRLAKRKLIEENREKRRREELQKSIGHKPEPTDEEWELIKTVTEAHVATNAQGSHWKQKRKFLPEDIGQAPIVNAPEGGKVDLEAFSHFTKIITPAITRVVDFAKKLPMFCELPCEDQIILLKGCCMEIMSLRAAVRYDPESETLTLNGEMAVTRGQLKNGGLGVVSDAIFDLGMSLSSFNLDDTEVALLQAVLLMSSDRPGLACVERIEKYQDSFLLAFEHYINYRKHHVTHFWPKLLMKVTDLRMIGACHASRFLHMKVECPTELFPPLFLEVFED
Nature of the test: co-IP; 500 µg of MCF-7 whole cell extract precipitated with TRβ, SRC-1 or normal IgG antibodies, protein A/G plus sepharose beads, Western blot; endogenous proteins; cells with or without overnight 1 µM T3. (In general: A western blot detects proteins with antibodies after separation by electrophoresis.)

Consider “Steroid receptor coactivator (SRC-1) (from UniProt Q15788 1-1441)”, for which the binding result is reported as “binds”.
